Source: article PMC3624461
No constants are given. Whether binding was seen depends on the method and setting. In cells and extracts the contact can be indirect. These calls come from enrichment with a bait or labelling near it, and not all partners need be listed. For some of these results: No binding means not detected with the bait.

Sequences of proteins named here, by UniProt entry; tags and fusion partners are left off. A change or cut given only in a name is not applied to a line headed by its entry. Residues count along the entry.
UniProt Q8NBP7: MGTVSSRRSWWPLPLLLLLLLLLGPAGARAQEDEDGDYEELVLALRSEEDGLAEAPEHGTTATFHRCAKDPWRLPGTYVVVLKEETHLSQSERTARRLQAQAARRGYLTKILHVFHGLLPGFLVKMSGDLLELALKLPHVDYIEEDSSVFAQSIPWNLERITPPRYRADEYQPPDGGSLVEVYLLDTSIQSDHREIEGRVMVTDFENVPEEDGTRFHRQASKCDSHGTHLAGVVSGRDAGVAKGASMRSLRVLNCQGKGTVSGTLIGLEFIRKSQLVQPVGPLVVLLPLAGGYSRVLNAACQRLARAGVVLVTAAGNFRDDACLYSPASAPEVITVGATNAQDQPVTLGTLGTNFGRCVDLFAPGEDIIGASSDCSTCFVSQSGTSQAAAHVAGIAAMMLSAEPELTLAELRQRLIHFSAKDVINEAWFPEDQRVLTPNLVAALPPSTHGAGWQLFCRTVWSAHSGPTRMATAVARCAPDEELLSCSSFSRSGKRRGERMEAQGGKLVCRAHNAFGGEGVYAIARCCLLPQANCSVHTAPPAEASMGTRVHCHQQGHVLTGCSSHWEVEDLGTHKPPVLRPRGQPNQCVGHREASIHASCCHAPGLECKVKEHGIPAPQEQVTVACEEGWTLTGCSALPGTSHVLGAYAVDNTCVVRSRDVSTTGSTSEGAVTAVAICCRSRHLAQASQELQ
UniProt P05067, residues 18-770: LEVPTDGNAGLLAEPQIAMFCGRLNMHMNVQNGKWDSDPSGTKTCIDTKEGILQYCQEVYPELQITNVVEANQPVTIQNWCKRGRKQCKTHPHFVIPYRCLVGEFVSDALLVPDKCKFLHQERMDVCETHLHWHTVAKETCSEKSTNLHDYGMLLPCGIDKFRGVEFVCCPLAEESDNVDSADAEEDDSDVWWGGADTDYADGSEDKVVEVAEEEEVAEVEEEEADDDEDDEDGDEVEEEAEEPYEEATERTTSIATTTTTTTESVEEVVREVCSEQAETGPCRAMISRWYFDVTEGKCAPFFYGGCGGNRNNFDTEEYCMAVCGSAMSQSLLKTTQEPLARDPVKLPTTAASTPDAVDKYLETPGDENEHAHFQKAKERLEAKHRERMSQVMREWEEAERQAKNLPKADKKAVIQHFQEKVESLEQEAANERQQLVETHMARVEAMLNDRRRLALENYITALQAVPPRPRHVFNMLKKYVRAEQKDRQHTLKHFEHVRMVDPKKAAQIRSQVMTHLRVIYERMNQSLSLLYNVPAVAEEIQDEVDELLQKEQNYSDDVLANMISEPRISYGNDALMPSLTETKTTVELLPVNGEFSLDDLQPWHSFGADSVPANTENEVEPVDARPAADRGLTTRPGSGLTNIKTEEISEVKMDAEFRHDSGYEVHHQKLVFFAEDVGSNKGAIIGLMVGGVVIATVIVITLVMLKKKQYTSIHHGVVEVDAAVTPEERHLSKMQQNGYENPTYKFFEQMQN
UniProt Q14573: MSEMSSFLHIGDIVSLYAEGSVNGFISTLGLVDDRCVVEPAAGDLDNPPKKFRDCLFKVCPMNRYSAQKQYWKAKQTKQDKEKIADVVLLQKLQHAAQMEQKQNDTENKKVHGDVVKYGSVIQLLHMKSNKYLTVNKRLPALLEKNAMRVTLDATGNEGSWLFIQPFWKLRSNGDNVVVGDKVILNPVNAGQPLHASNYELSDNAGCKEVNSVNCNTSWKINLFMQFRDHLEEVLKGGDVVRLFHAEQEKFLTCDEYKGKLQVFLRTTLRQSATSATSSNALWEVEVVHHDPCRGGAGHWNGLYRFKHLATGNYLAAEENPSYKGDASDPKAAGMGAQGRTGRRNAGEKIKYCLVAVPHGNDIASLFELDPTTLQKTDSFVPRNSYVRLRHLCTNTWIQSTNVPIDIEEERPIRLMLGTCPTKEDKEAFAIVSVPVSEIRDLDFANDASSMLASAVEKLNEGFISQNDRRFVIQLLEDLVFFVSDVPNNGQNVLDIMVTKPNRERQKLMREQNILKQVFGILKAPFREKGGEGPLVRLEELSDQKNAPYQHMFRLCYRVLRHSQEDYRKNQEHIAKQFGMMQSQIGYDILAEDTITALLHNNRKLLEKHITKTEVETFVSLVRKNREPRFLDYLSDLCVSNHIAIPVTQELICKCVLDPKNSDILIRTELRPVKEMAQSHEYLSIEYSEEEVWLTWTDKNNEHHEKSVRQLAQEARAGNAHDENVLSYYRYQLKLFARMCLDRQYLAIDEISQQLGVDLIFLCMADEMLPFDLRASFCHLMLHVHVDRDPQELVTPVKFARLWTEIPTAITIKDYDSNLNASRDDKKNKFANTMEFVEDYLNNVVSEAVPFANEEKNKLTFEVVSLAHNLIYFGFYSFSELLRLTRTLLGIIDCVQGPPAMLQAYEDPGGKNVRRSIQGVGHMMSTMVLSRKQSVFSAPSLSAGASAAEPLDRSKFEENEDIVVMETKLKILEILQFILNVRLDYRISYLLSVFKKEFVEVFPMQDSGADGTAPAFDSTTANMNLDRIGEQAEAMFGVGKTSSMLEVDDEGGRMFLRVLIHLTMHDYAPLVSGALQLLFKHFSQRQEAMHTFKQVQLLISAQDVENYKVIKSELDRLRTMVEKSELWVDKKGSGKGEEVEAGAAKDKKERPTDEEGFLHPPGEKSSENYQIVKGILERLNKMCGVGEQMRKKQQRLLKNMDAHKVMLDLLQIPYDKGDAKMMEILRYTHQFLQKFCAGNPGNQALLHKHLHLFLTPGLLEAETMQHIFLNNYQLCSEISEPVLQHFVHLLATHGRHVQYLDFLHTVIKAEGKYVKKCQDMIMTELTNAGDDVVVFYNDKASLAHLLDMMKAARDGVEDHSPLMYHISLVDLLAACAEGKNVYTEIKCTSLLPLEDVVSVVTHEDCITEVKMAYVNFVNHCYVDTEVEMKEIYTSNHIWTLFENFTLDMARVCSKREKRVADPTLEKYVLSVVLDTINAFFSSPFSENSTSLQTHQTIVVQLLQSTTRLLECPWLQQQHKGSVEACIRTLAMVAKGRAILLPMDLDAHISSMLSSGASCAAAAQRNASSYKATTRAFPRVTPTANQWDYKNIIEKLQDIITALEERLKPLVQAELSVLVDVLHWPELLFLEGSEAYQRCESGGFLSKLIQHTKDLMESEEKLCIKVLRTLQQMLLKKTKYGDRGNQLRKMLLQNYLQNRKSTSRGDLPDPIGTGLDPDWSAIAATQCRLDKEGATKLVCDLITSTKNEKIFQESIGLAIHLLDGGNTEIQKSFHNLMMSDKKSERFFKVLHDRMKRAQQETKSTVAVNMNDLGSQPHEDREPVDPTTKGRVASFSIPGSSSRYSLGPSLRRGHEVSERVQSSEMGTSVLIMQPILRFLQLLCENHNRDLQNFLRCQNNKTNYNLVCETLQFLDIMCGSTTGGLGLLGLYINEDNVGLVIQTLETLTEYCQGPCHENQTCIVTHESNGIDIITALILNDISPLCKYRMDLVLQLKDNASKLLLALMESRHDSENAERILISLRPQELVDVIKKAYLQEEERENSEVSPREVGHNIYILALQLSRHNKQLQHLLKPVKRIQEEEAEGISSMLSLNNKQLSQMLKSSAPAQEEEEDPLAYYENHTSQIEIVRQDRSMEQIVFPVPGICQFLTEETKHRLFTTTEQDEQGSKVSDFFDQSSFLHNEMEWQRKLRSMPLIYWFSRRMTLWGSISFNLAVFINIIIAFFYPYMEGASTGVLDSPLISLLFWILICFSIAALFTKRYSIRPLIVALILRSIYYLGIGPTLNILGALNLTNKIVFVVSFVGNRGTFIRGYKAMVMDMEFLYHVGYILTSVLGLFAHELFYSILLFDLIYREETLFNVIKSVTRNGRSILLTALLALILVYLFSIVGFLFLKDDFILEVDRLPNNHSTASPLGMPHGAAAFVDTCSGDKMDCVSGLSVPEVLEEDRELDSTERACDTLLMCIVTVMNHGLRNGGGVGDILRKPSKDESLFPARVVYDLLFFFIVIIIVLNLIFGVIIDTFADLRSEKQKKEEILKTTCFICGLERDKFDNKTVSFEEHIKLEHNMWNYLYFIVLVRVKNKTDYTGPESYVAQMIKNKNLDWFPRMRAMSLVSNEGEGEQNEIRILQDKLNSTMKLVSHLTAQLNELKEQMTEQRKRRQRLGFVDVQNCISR
UniProt Q15436: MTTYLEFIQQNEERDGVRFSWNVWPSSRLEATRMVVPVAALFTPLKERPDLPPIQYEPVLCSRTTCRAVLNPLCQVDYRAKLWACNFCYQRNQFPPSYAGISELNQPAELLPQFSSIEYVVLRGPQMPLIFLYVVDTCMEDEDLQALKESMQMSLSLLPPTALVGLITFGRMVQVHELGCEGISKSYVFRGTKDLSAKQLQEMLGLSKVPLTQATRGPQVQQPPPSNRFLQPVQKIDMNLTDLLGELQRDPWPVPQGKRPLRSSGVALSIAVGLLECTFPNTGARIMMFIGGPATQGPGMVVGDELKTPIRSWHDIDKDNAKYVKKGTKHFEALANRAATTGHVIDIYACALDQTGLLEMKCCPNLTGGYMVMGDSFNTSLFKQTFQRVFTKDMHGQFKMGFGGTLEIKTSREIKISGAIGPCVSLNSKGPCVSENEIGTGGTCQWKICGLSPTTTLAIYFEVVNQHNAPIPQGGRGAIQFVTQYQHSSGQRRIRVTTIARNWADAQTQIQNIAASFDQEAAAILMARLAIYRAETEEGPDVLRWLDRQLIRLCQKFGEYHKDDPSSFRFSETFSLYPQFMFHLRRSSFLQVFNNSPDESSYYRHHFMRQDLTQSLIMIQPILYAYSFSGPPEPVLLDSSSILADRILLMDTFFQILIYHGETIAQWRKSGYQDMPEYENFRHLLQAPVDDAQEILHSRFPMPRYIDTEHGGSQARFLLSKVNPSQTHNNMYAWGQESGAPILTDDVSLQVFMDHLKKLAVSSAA
UniProt Q9Y5X1: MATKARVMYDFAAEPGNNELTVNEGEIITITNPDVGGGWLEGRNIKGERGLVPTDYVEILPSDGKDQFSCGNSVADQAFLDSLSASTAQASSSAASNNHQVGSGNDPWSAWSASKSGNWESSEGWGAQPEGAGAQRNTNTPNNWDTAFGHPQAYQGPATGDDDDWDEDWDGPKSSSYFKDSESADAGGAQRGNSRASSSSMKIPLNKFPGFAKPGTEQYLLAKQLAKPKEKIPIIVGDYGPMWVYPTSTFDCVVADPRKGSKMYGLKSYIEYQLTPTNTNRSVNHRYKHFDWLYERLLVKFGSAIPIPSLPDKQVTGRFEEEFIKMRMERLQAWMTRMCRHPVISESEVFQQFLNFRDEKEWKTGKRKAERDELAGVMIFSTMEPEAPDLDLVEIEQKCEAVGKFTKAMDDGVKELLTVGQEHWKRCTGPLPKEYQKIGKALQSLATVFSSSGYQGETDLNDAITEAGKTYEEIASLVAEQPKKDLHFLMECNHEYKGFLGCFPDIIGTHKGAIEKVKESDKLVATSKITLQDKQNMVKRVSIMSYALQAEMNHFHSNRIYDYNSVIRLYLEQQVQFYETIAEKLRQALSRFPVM
UniProt Q93009: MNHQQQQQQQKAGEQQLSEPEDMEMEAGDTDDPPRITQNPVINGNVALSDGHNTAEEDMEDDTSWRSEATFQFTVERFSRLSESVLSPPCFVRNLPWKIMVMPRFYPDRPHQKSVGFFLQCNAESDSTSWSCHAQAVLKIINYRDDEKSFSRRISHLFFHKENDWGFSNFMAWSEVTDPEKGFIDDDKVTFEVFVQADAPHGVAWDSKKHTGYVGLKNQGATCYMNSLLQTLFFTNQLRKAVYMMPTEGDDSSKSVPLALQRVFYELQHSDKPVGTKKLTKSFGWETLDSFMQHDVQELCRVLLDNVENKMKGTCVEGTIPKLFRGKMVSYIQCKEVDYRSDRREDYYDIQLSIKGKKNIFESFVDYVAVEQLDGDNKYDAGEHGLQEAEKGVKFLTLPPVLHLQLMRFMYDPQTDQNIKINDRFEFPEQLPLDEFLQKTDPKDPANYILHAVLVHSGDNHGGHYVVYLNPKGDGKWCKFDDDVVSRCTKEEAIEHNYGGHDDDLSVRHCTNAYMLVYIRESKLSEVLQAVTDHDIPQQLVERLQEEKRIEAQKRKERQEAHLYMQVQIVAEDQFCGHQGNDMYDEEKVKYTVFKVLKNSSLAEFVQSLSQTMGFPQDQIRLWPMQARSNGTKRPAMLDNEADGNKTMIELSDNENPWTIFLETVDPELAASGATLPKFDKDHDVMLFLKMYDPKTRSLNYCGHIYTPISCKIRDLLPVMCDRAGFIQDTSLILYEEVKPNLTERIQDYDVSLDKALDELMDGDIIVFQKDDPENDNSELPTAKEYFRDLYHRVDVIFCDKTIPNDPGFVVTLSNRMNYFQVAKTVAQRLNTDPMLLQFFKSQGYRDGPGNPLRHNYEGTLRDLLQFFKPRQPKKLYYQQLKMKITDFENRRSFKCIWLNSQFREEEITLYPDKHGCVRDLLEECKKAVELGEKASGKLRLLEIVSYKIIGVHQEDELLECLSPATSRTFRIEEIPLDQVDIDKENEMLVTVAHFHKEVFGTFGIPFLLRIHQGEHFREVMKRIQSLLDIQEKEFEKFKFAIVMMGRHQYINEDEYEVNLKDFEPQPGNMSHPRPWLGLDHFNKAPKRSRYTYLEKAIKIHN

The molecules below were run against Proprotein convertase subtilisin/kexin type 9 (PCSK9), recombinant full-length (human) (UniProt Q8NBP7) (assay: affinity purification with mass spectrometry; PCSK9 (20 μg/ml) premixed with J16 (40 μg/ml), added to precleared HepG2 or HEK293 lysate in IP buffer pH 6.0 (0.5% Triton X-100, 20 mM Hepes, 150 mM NaCl, 20 mM CaCl2), 2 h; protein G beads; eluted with pH 8.0 IP buffer; LC-MS/MS; J16 without PCSK9 as negative control; only the target purified).

Molecule | binding
Peptidyl-prolyl cis-trans isomerase-like 4 (protein, UniProt Q8WUA2 1-492) MAVLLETTLGDVVIDLYTEERPRACLNFLKLCKIKYYNYCLIHNVQRDFIIQTGDPTGTGRGGESIFGQLYGDQASFFEAEKVPRIKHKKKGTVSMVNNGSDQHGSQFLITTGENLDYLDGVHTVFGEVTEGMDIIKKINETFVDKDFVPYQDIRINHTVILDDPFDDPPDLLIPDRSPEPTREQLDSGRIGADEEIDDFKGRSAEEVEEIKAEKEAKTQAILLEMVGDLPDADIKPPENVLFVCKLNPVTTDEDLEIIFSRFGPIRSCEVIRDWKTGESLCYAFIEFEKEEDCEKAFFKMDNVLIDDRRIHVDFSQSVAKVKWKGKGGKYTKSDFKEYEKEQDKPPNLVLKDKVKPKQDTKYDLILDEQAEDSKSSHSHTSKKHKKKTHHCSEEKEDEDYMPIKNTNQDIYREMGFGHYEEEESCWEKQKSEKRDRTQNRSRSRSRERDGHYSNSHKSKYQTDLYERERSKKRDRSRSPKKSKDKEKSKYR | binds
Uncharacterized protein C4orf14 (protein, UniProt Q8NC60 1-698) MLPARLPFRLLSLFLRGSAPTAARHGLREPLLERRCAAASSFQHSSSLGRELPYDPVDTEGFGEGGDMQERFLFPEYILDPEPQPTREKQLQELQQQQEEEERQRQQRREERRQQNLRARSREHPVVGHPDPALPPSGVNCSGCGAELHCQDAGVPGYLPREKFLRTAEADGGLARTVCQRCWLLSHHRRALRLQVSREQYLELVSAALRRPGPSLVLYMVDLLDLPDALLPDLPALVGPKQLIVLGNKVDLLPQDAPGYRQRLRERLWEDCARAGLLLAPGHQGPQRPVKDEPQDGENPNPPNWSRTVVRDVRLISAKTGYGVEELISALQRSWRYRGDVYLVGATNAGKSTLFNTLLESDYCTAKGSEAIDRATISPWPGTTLNLLKFPICNPTPYRMFKRHQRLKKDSTQAEEDLSEQEQNQLNVLKKHGYVVGRVGRTFLYSEEQKDNIPFEFDADSLAFDMENDPVMGTHKSTKQVELTAQDVKDAHWFYDTPGITKENCILNLLTEKEVNIVLPTQSIVPRTFVLKPGMVLFLGAIGRIDFLQGNQSAWFTVVASNILPVHITSLDRADALYQKHAGHTLLQIPMGGKERMAGFPPLVAEDIMLKEGLGASEAVADIKFSSAGWVSVTPNFKDRLHLRGYTPEGTVLTVRPPLLPYIVNIKGQRIKKSVAYKTKKPPSLMYNVRKKKGKINV | binds
Squamous cell carcinoma antigen recognized by T-cells 3 (protein, UniProt Q15020 1-963) MATAAETSASEPEAESKAGPKADGEEDEVKAARTRRKVLSRAVAAATYKTMGPAWDQQEEGVSESDGDEYAMASSAESSPGEYEWEYDEEEEKNQLEIERLEEQLSINVYDYNCHVDLIRLLRLEGELTKVRMARQKMSEIFPLTEELWLEWLHDEISMAQDGLDREHVYDLFEKAVKDYICPNIWLEYGQYSVGGIGQKGGLEKVRSVFERALSSVGLHMTKGLALWEAYREFESAIVEAARLEKVHSLFRRQLAIPLYDMEATFAEYEEWSEDPIPESVIQNYNKALQQLEKYKPYEEALLQAEAPRLAEYQAYIDFEMKIGDPARIQLIFERALVENCLVPDLWIRYSQYLDRQLKVKDLVLSVHNRAIRNCPWTVALWSRYLLAMERHGVDHQVISVTFEKALNAGFIQATDYVEIWQAYLDYLRRRVDFKQDSSKELEELRAAFTRALEYLKQEVEERFNESGDPSCVIMQNWARIEARLCNNMQKARELWDSIMTRGNAKYANMWLEYYNLERAHGDTQHCRKALHRAVQCTSDYPEHVCEVLLTMERTEGSLEDWDIAVQKTETRLARVNEQRMKAAEKEAALVQQEEEKAEQRKRARAEKKALKKKKKIRGPEKRGADEDDEKEWGDDEEEQPSKRRRVENSIPAAGETQNVEVAAGPAGKCAAVDVEPPSKQKEKAASLKRDMPKVLHDSSKDSITVFVSNLPYSMQEPDTKLRPLFEACGEVVQIRPIFSNRGDFRGYCYVEFKEEKSALQALEMDRKSVEGRPMFVSPCVDKSKNPDFKVFRYSTSLEKHKLFISGLPFSCTKEELEEICKAHGTVKDLRLVTNRAGKPKGLAYVEYENESQASQAVMKMDGMTIKENIIKVAISNPPQRKVPEKPETRKAPGGPMLLPQTYGARGKGRTQLSLLPRALQRPSAAAPQAENGPAAAPAVAAPAATEAPKMSNADFAKLFLRK | binds

Each molecule was assayed against Proprotein convertase subtilisin/kexin type 9 (PCSK9), recombinant full-length (human) (UniProt Q8NBP7) (assay: affinity purification with mass spectrometry; as a1 but at pH 7.4, protein A Dynabeads, eluted by boiling; only the target purified).

Molecule | binding
Amyloid β A4 protein (APP), endogenous (from UniProt P05067 18-770) | no binding (only at pH 7.4)
Amyloid-like protein 2 (APLP2), endogenous (from UniProt Q06481 32-763) | no binding (only at pH 7.4)

Target: Proprotein convertase subtilisin/kexin type 9 (PCSK9), recombinant full-length (human) (UniProt Q8NBP7)
Assay: affinity purification with mass spectrometry; PCSK9 (20 μg/ml) premixed with J16 (40 μg/ml), added to precleared HepG2 or HEK293 lysate in IP buffer pH 6.0 (0.5% Triton X-100, 20 mM Hepes, 150 mM NaCl, 20 mM CaCl2), 2 h; protein G beads; eluted with pH 8.0 IP buffer; LC-MS/MS; J16 without PCSK9 as negative control; only the target purified
Remark: another data set of the same source

Molecule | binding
Amyloid β A4 protein (APP), endogenous (from UniProt P05067 18-770) | binds
Amyloid-like protein 2 (APLP2), endogenous (from UniProt Q06481 32-763) | binds
Coatomer subunit α (from UniProt P53621 1-1224) | binds
Inositol 1,4,5-trisphosphate receptor type 3 (from UniProt Q14573 1-2671) | binds
Protein transport protein Sec23A (from UniProt Q15436 1-765) | binds
Sorting nexin-9 (from UniProt Q9Y5X1 1-595) | binds
U5 small nuclear ribonucleoprotein 200-kDa helicase (from UniProt O75643 1-2136) | binds
Ubiquitin C-terminal hydrolase 7 (from UniProt Q93009 1-1102) | binds
